From article doi:10.1101/2024.02.28.582656
Where a chain is given by its changes, count along the chain named. Like-named read-outs stand apart in the source and are kept apart here. Results are given in words; binding and its absence hold for the method and conditions named. In cells and extracts the contact can be indirect. Some binding calls cover weakened binding; strength is not graded here. For some of these results: Where a sequence is shown, tags or fusion partners need not be part of it.

By UniProt entry, the sequences of proteins in these tests, tags left out.
UniProt O95292: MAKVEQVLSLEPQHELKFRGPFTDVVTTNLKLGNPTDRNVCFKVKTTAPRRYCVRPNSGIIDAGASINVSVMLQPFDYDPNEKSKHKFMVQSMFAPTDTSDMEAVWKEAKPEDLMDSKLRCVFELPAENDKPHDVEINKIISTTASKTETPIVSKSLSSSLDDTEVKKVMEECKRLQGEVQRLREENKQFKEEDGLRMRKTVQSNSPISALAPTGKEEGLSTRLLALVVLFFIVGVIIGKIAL

What was measured:
Test in all cases: co-IP
[1] = target: T1, GFP-VPS13B-NT (1-1500aa) S560D (human) (UniProt Q7Z7G8)
T1 sequence: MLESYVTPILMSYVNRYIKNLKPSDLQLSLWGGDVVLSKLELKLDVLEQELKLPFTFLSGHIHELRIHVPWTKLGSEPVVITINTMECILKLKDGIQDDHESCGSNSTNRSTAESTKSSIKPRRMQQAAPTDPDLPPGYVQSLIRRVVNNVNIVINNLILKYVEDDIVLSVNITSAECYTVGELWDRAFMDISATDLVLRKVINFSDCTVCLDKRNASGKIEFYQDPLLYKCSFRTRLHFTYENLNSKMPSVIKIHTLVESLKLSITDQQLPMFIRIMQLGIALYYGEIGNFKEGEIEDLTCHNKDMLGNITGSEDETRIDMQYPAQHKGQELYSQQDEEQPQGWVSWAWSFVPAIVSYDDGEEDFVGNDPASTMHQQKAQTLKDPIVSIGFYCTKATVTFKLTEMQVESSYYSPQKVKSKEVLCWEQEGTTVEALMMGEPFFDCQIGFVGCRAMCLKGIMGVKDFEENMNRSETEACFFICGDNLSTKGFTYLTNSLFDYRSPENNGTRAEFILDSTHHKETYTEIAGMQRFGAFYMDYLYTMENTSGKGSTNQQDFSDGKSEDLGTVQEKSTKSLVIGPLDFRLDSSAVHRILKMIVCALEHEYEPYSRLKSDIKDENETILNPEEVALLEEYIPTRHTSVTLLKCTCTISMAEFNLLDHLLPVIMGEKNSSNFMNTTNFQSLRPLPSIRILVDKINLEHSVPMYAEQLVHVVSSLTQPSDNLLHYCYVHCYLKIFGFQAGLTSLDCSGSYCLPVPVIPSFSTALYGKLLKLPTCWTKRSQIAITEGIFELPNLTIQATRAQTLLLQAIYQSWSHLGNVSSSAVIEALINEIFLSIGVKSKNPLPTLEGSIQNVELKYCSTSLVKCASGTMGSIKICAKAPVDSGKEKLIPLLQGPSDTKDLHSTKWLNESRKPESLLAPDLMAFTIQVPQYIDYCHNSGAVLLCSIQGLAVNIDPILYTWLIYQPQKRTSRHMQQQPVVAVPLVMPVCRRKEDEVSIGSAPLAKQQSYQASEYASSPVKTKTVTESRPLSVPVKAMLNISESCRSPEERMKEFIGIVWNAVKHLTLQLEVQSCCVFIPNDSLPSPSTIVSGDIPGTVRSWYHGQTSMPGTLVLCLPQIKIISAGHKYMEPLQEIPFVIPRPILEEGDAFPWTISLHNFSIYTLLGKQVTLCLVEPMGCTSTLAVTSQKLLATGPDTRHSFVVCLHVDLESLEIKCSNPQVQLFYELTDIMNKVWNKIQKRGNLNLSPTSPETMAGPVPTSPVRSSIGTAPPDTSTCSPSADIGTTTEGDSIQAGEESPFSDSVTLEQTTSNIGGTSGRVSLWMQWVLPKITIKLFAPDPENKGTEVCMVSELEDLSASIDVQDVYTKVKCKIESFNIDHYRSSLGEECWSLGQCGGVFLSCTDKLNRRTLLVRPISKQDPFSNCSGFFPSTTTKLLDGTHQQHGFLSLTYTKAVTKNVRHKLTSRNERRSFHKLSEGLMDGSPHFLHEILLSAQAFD

[2] = target: T2, GFP-VPS13B-NT (1-1500aa) (human) (UniProt Q7Z7G8)
T2 sequence: T1 sequence with D560S

[3] = target: endogenous VPS13B (human (endogenous in HEK293)) (UniProt Q7Z7G8)
[4] = target: T2, GFP-VPS13B-NT (1-1500aa) (human); remark: listed apart in the source

Molecule: VAPB (from UniProt O95292 1-243)
- binding [1]: binds
- binding [2]: binds

B1: endogenous Sec23IP (protein, UniProt Q9Y6Y8 1-1000)
chain: MAERKPNGGSGGASTSSSGTNLLFSSSATEFSFNVPFIPVTQASASPASLLLPGEDSTDVGEEDSFLGQTSIHTSAPQTFSYFSQVSSSSDPFGNIGQSPLTTAATSVGQSGFPKPLTALPFTTGSQDVSNAFSPSISKAQPGAPPSSLMGINSYLPSQPSSLPPSYFGNQPQGIPQPGYNPYRHTPGSSRANPYIAPPQLQQCQTPGPPAHPPPSGPPVQMYQMPPGSLPPVPSSVQSPAQQQVPARPGAPSVQVPSPFLLQNQYEPVQPHWFYCKEVEYKQLWMPFSVFDSLNLEEIYNSVQPDPESVVLGTDGGRYDVYLYDRIRKAAYWEEEPAEVRRCTWFYKGDTDSRFIPYTEEFSEKLEAEYKKAVTTNQWHRRLEFPSGETIVMHNPKVIVQFQPSSVPDEWGTTQDGQTRPRVVKRGIDDNLDEIPDGEMPQVDHLVFVVHGIGPVCDLRFRSIIECVDDFRVVSLKLLRTHFKKSLDDGKVSRVEFLPVHWHSSLGGDATGVDRNIKKITLPSIGRFRHFTNETLLDILFYNSPTYCQTIVEKVGMEINHLHALFMSRNPDFKGGVSVAGHSLGSLILFDILSNQKDLNLSKCPGPLAVANGVVKQLHFQEKQMPEEPKLTLDESYDLVVENKEVLTLQETLEALSLSEYFSTFEKEKIDMESLLMCTVDDLKEMGIPLGPRKKIANFVEHKAAKLKKAASEKKAVAATSTKGQEQSAQKTKDMASLPSESNEPKRKLPVGACVSSVCVNYESFEVGAGQVSVAYNSLDFEPEIFFALGSPIAMFLTIRGVDRIDENYSLPTCKGFFNIYHPLDPVAYRLEPMIVPDLDLKAVLIPHHKGRKRLHLELKESLSRMGSDLKQGFISSLKSAWQTLNEFARAHTSSTQLQEELEKVANQIKEEEEKQVVEAEKVVESPDFSKDEDYLGKVGMLNGGRRIDYVLQEKPIESFNEYLFALQSHLCYWESEDTALLLLKEIYRTMNISPEQPQH
- binding [3]: binds

B2: MOSPD3 (protein, UniProt O75425 1-235)
chain: MRRGAPQDQELVGPGPPGRGSRGAPPPLGPVVPVLVFPPDLVFRADQRSGPRQLLTLYNPTGTALRFRVLCTAPAKYTVFDAEGYVKPQSCIDIVIRHVAPIPSHYDVQDRFRIELSEEGAEGRVVGRKDITSILRAPAYPLELQGQPDPAPRPGPPAGTPPPTARHFQEHPRQQLATSSFLLFLLTGIVSVAFLLLPLPDELGSQLPQVLHVSLGQKLVAAYVLGLLTMVFLRT
- binding [4]: no binding
